Binding signal data for 1 sequence are collected here from paper PMC5996148.

Sequences of proteins named here, by UniProt entry; tags and fusion partners are left off. A change or cut given only in a name is not applied to a line headed by its entry.
UniProt Q96AZ6: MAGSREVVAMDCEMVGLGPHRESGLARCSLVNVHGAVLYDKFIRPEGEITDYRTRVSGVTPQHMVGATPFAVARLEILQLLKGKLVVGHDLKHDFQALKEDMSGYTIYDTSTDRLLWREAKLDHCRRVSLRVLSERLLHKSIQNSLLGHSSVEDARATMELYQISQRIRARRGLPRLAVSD

The list shows a part of the results. For some of these results: The source does not settle which construct or isoform was used.

Test systems include ING3 (human); INTS4 (human); INVS (human); IRAK3 (human); IRF5 (human); IRF6 (human); ITGB1BP3 (human).
Holding throughout (assay): protein microarray (ProtoArray v5.0), streptavidin-Alexa Fluor 647
Common to all, as to details: 3'-biotin; 20 mM Tris (pH 7.5), 5 mM MgCl2, 100 mM KCl, 0.1% Tween-20, A/T-rich and random oligonucleotide blockers; temperature not stated; high values mean tight binding

The target in the next experiment is T1, IPPK (UniProt Q9H8X2).
T1 sequence: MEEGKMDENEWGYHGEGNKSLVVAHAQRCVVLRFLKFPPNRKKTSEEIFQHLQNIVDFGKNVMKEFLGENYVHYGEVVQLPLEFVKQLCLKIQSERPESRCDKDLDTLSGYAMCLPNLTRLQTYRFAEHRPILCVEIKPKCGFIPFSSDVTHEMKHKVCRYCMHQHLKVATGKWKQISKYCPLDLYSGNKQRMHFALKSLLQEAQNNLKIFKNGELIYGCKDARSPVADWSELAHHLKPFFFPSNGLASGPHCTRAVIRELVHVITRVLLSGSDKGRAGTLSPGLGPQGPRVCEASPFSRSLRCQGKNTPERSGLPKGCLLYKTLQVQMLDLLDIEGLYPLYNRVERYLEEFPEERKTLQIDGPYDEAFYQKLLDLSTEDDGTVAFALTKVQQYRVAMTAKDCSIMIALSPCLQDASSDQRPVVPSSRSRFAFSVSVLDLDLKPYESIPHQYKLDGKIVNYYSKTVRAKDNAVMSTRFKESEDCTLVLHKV

In another experiment the target is ISG20 (UniProt Q96AZ6).
The next experiment deals with ITM2B (UniProt Q9Y287).

“GGTGACAGGGGTATGGGGAGGGG [G4-2 biotinylated (Ct1)]”: the binding signal is -0.392 z-score in the experiment on ING3 (human); -0.378 z-score with INTS4 (human); -0.388 z-score in the experiment with INVS (human); 3.63 z-score with IPPK; -0.382 z-score in the experiment with IRAK3 (human); -0.371 z-score in the experiment with IRF5 (human). Besides, the binding signal is -0.394 z-score in the experiment on IRF6 (human), 3.99 z-score with ISG20, -0.398 z-score in the experiment on ITGB1BP3 (human) and -0.373 z-score with ITM2B.
